The nature of the assay: qHTS Assay for Lipid Storage Modulators in Drosophila S3 Cells.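 On cell number change: cells counted by Cell Tracker Red CMTPX staining in the red channel.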 The settings on record: BODIPY lipid droplet fluorescence, 18-24 h; for cell number change: measured here: cell count max response, cells fed with added oleic acid. The method, boiled down: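 Laser-scanning cytometry quantifies lipid droplet accumulation (500–530 nm total intensity; droplet/cell object ratio) in oleic acid-fed (400 uM added) Drosophila S3 cells treated with a concentration series. 20 uM Triacsin C defined 100% inhibition.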
(In general: In qHTS, concentration-response curves come from the screen itself.)

Where [1] appears, read: measured here: cell number channel AC50, cells fed with added oleic acid.
Setting [2] is: measured here: lipid fluorescence (Fed channel) AC50, cells fed with added oleic acid.

The list shows a part of the results. The main result of the screen is listed elsewhere. These columns were measured beside it and carry no call. Most of these compounds were active or inconclusive in the main read-out, so they are no random draw. Potencies come from curve fits of mixed quality, noted in brackets.

In general, AC50 refers to the concentration giving half of the maximal activity seen. A high value points to activity only at high concentration. `O=C(NCCOc1ccccc1)c1n[nH]c(=O)c2ccccc12`: the cell number change was found to be 108%. Besides, the half-maximal activity concentration (AC50) under setting [1] was 29.1 µM [rising, single point].
With `O=C(O)c1cc2nc(-c3ccccc3)cc(C(F)(F)F)n2n1`, the cell number change is -1.47%. For the same compound, under setting [2], the AC50 was 1.03 µM [falling, full curve, poor fit].
Consider `CC1CC(=O)C2=C(C1)Nc1ccccc1N=C2` (configuration not stated), for which the cell number change amounted to 34.7%. Also, under setting [2], the AC50 was 2.59 µM [falling, partial curve].
As to `COC(=O)c1ccc(OC(=O)C2CC(=O)N(c3ccc(C)cc3C)C2)cc1` (configuration not stated), the cell number change is -17.3%. In addition, the AC50 under setting [1] was 0.651 µM [falling, full curve, poor fit]. Moreover, the concentration at half-maximal activity (AC50) under setting [2] was 0.731 µM [falling, full curve].
For the compound `COC(=O)C1=C(C)NC2=C(C(=O)CC(c3cccs3)C2)C1c1ccsc1` (configuration not stated), the cell number change turned out to be 5.43%. The AC50 under setting [2] was 10.3 µM [rising, partial curve].
Consider `COc1ccc(NC(=O)c2ccco2)cc1NC(=O)c1ccccc1F`, for which the cell number change worked out at 298%. Further, under setting [1], the half-maximal activity concentration (AC50) was 29.1 µM [rising, partial curve].
`O=C(CCc1ccccc1)NNC(=O)c1ccccc1Cl`: the AC50 under setting [2] is 4.11 µM [rising, single point].
With `Cc1ccc(Nc2nc(CSc3nnc(-c4cccnc4)n3-c3ccccc3C)cs2)cc1`, the cell number change worked out at 33.4%. Besides, the AC50 under setting [1] was 0.291 µM [rising, full curve, poor fit]. Also, the AC50 under setting [2] was 16.4 µM [rising, partial curve, poor fit].
Regarding `COc1ccc(C(CNC(=O)c2ccc(OC)c(S(=O)(=O)N3CCCC3)c2)N2CCCC2)cc1` (configuration not stated), the cell number change is -2.71%.
Take `Cc1cccc2c1cnn2C(=O)Nc1ccccc1Br`: the AC50 under setting [2] is 6.51 µM [rising, single point].
`Cc1ccc(OCC(=O)Nc2ccc(S(=O)(=O)N3CCCCC3)cc2)c([N+](=O)[O-])n1`: the half-maximal activity concentration (AC50) under setting [1] is 6.51 µM [rising, single point].
Regarding `O=C(NCc1nnc2c(C(F)(F)F)cc(Cl)cn12)c1cccnc1`, the cell number change was -0.382%. Also, the AC50 under setting [2] was 6.51 µM [falling, single point].
For the compound `Cc1cnn(C(=O)Cn2nc(C(F)F)c(Br)c2C)c1`, the cell number change is -30.4%. The concentration at half-maximal activity (AC50) under setting [1] was 16.4 µM [falling, single point]. Also, the AC50 under setting [2] is 32.6 µM [falling, single point].
With `Cc1noc(C)c1CCC(=O)N1CCCC(CCC(=O)NCc2ccc(F)c(F)c2)C1` (configuration not stated), the cell number change is -6.11%.
Consider `Cc1cc(SCc2cc(=O)n3ccsc3n2)nc2ccccc12`, for which the cell number change was 98.2%. For the same compound, under setting [2], the concentration at half-maximal activity (AC50) was 4.11 µM [rising, single point].
With `CCCC(=O)NC(=S)Nc1ccc(N2CCN(C(=O)c3cccs3)CC2)cc1`, the cell number change worked out at 13%. Further, under setting [1], the half-maximal activity concentration (AC50) is 0.82 µM [rising, full curve].
Turning to `O=C(Nc1nc2c(s1)CCCC2)c1cccc(S(=O)(=O)N2CCCc3ccccc32)c1`, the AC50 under setting [1] was 0.731 µM [falling, single point].
On to `COc1cc2c(cc1NC(=O)c1ccco1)CCCC2`, for which the cell number change stood at 24.9%. The AC50 under setting [1] is 0.082 µM [falling, full curve, poor fit]. For the same compound, the concentration at half-maximal activity (AC50) under setting [2] is 20.6 µM [rising, partial curve].
On to `Nc1nnc(SCCCOc2ccc(F)cc2)s1`, for which the cell number change worked out at 9.73%.
`Cc1nc(SCCOc2ccccc2F)[nH]c(=O)c1Cc1ccccc1`: the cell number change was -46.1%. Under setting [1], the AC50 is 18.4 µM [falling, partial curve, poor fit]. Under setting [2], the half-maximal activity concentration (AC50) was 14.6 µM [falling, partial curve, poor fit].
For the compound `CCCc1cc(=O)[nH]c(-n2[nH]c3c(c2=O)CCCC3)n1`, the cell number change is -14.6%.
As to `O=C(CN1C(=O)c2cccc3cccc1c23)Nc1ccc(S(=O)(=O)N2CCOCC2)cc1`, the cell number change worked out at 7.93%. Besides, the AC50 under setting [2] is 2.91 µM [rising, partial curve].
On to `O=C(CSCc1ccccc1)N/N=C/c1cc2c(cc1Br)OCO2`, for which the cell number change is -27.9%. The AC50 under setting [2] is 29.1 µM [falling, single point].
Turning to `O=C(Nc1ccc(Br)cc1)c1ccc2c(c1)OCO2`, the cell number change is 9.34%.
Take `CCCN1C(=O)/C(=N\OCC(=O)Nc2ccc(C(C)C)cc2)c2ccccc21`: the cell number change was found to be 18.5%. Further, the AC50 under setting [1] was 6.51 µM [falling, partial curve, poor fit].
As for `COc1ccc2oc(-c3cccc(NC(=O)CSc4ccc(Cl)cc4)c3)nc2c1`, the cell number change is -46.7%. Further, under setting [1], the AC50 is 14.6 µM [falling, partial curve, poor fit]. Also, the concentration at half-maximal activity (AC50) under setting [2] was 16.4 µM [falling, single point].
Regarding `CCOC(=O)C1CCN(C(=O)CCS(=O)(=O)Cc2ccccc2)CC1`, the cell number change is 19.7%.
As to `Cc1ccc(-n2ncc3c(=O)n(CC(=O)NC4CCCCC4)cnc32)cc1`, the cell number change came to 17.5%. Further, the half-maximal activity concentration (AC50) under setting [2] is 20.6 µM [rising, single point].
Regarding `NC(=O)Cc1ccc2c(c1)[nH]c1ccccc12`, the cell number change was -44.3%. Further, under setting [1], the AC50 is 18.4 µM [falling, single point]. Under setting [2], the half-maximal activity concentration (AC50) was 32.6 µM [falling, single point].
For `Cc1nnc(SCCn2c(N(C)Cc3ccccc3)nc3c2c(=O)[nH]c(=O)n3C)s1`, the cell number change is 0.425%. Further, the half-maximal activity concentration (AC50) under setting [2] is 20.6 µM [falling, single point].
With `O=C1N2CCSC2=NC1(Nc1ccccn1)C(F)(F)F` (configuration not stated), the cell number change is -13.9%. In addition, the AC50 under setting [1] is 3.66 µM [falling, partial curve, poor fit]. For the same compound, the AC50 under setting [2] was 6.51 µM [falling, partial curve, poor fit].
For `COc1ccc(S(=O)(=O)N2CCN(C(=O)CCNC(=O)c3ccccc3Cl)CC2)cc1`, the cell number change was 26.7%. For the same compound, the half-maximal activity concentration (AC50) under setting [2] was 16.4 µM [rising, single point].
As to `O=C(CSc1ncn[nH]1)Nc1nsc(-c2ccccc2)n1`, the cell number change is -21.4%.
For the compound `NC(=O)CC(NC(=O)c1ccc(Br)cc1)c1ccc(N2CCC(Cc3ccccc3)CC2)c([N+](=O)[O-])c1` (configuration not stated), the cell number change is -20.1%. For the same compound, under setting [2], the AC50 is 0.00461 µM [falling, full curve, poor fit].
For the compound `COc1cccc(NC(=O)CN(C)C(=O)c2c(C)nn(Cc3ccc(C)cc3)c2Cl)c1`, the cell number change came to 88.8%. The AC50 under setting [1] was 13 µM [rising, partial curve].
Turning to `Cc1[nH]c2ccccc2c1C1=NNC(=Nc2ccc(F)cc2)SC1`, the cell number change was -35.1%. Further, under setting [1], the AC50 was 29.1 µM [falling, single point]. In addition, the AC50 under setting [2] was 29.1 µM [falling, single point].
On to `CCCOc1ccc(/C=N/Nc2ccccc2[N+](=O)[O-])c(OCCC)c1`, for which the cell number change was -40.5%. The half-maximal activity concentration (AC50) under setting [1] is 1.84 µM [falling, full curve]. Moreover, the concentration at half-maximal activity (AC50) under setting [2] was 2.06 µM [falling, full curve].
Regarding `CCOP(=O)(OCC)c1nc(-c2cccc3ccccc23)oc1N1CCCCC1`, the cell number change is -31.7%. In addition, under setting [2], the AC50 is 32.6 µM [falling, single point].
As for `COc1ccc(C(NC(=O)c2c(F)c(F)c(F)c(F)c2F)c2ccccc2)cc1` (configuration not stated), the cell number change stood at 30.2%. Also, under setting [1], the AC50 is 29.1 µM [rising, single point].
For `C=CCc1ccccc1OCCNCCCOC`, the cell number change is -54.7%. Moreover, the half-maximal activity concentration (AC50) under setting [1] was 32.6 µM [falling, single point]. Further, under setting [2], the half-maximal activity concentration (AC50) is 29.1 µM [falling, single point].
On to `Cc1ccc(CSCC(=O)Nc2cc(S(=O)(=O)N3CCOCC3)ccc2OC(C)C)cc1`, for which the cell number change was 150%. Under setting [1], the concentration at half-maximal activity (AC50) was 18.4 µM [rising, partial curve].
`COc1cc(C(C(=O)NC2CCCCC2)N(Cc2cccs2)C(=O)Cc2c[nH]c3ccccc23)cc(OC)c1OC` (configuration not stated): the cell number change was found to be 1.13%. Further, the AC50 under setting [2] was 14.6 µM [rising, single point].
On to `c1cnc(-c2noc(CN3CCN(C4C5CC6CC(C5)CC4C6)CC3)n2)cn1` (configuration not stated), for which the cell number change came out at 0.119%.
Regarding `CCOC(=O)c1c(NC(=O)CCC(=O)N(CC)CC)sc2c1CC(C)(C)OC2`, the cell number change was -9.71%. Further, the half-maximal activity concentration (AC50) under setting [2] was 18.4 µM [falling, single point].
With `CN1CCN(CC(=O)N2c3ccccc3C(C)(c3ccc(Cl)cc3)CC2(C)C)CC1` (configuration not stated), the cell number change is -7.21%. The AC50 under setting [2] was 0.731 µM [falling, full curve].
In the case of `COc1ccc(Cn2c(=O)[nH]c3cc(C(=O)N4CCN(c5ccccn5)CC4)ccc3c2=O)cc1`, the cell number change was 32.8%. Moreover, the AC50 under setting [1] was 0.00517 µM [rising, full curve, poor fit]. Moreover, the AC50 under setting [2] was 29.1 µM [rising, single point].
For `Cc1c(CNCCc2ccc(Cl)cc2)c(C(=O)O)c(C)n1-c1ccccc1`, the cell number change is -31.9%. Moreover, the AC50 under setting [2] is 0.58 µM [falling, single point].
`Cc1cc(OCCSc2nnc(-c3cccs3)n2C)ccc1Cl`: the cell number change was -31.2%. Also, the AC50 under setting [1] was 0.461 µM [falling, full curve, poor fit]. Moreover, under setting [2], the half-maximal activity concentration (AC50) is 23.1 µM [falling, partial curve, poor fit].
`COc1ccc(S(=O)(=O)NC2CCc3ccccc32)cc1OC` (configuration not stated): the cell number change is -15.3%.
The same measure, in the same setting: with `Cc1ccc(S(=O)(=O)N=Nc2c(O)[nH]c3ccccc23)cc1C` the figure was -1.45%.
For `CCCNC(=O)C(Cc1ccccc1C)NC(=O)c1ccc(C#N)cc1` (configuration not stated), the cell number change is -6.26%. Moreover, the half-maximal activity concentration (AC50) under setting [1] is 0.411 µM [falling, single point]. Moreover, the AC50 under setting [2] is 0.517 µM [falling, single point].
Consider `CCc1ccccc1NC(=O)CN1CCN(C(=O)CN2C(=O)NC3(CCCCC3C)C2=O)CC1` (configuration not stated), for which the cell number change was -31.6%. The half-maximal activity concentration (AC50) under setting [1] was 14.6 µM [falling, partial curve, poor fit]. The AC50 under setting [2] is 6.51 µM [falling, single point].
In the case of `CCOC(=O)C1=C(CNCc2ccccc2Cl)NC(=O)NC1c1cccc([N+](=O)[O-])c1` (configuration not stated), the cell number change came to 51.4%. For the same compound, the AC50 under setting [1] is 29.1 µM [rising, single point]. In addition, the AC50 under setting [2] is 6.51 µM [falling, single point].
Consider `CCOc1ccc(N2CC(C(=O)NC(C)C)CC2=O)cc1` (configuration not stated), for which the cell number change was -1.44%.
`NC(=O)c1ccccc1NC(=O)c1ccoc1`: the cell number change came to 3.6%. Further, under setting [1], the concentration at half-maximal activity (AC50) was 4.11 µM [rising, single point]. Moreover, the half-maximal activity concentration (AC50) under setting [2] was 2.59 µM [rising, single point].
As to `Cc1ccc2c(c1)c1c(n2CC(O)CNC(CO)(CO)CO)CCCC1` (configuration not stated), the cell number change was -131%. The half-maximal activity concentration (AC50) under setting [1] was 32.6 µM [falling, partial curve]. Besides, under setting [2], the concentration at half-maximal activity (AC50) is 25.9 µM [falling, partial curve].
On to `NC(=O)C1(N2CCCCC2)CCN(c2ccc3nnc(-c4ccccc4)n3n2)CC1`, for which the cell number change was -11.5%. Further, under setting [2], the AC50 was 16.4 µM [falling, partial curve].

These data come from PubChem BioAssay AID2685 (National Center for Advancing Translational Sciences (NCATS), 2010).
